Reference: patent US20050148031A1, “Catalytic efficiency and/or specificity of non-native substrates of enzymes” (priority 2003, published 2005)
Part of at least one peptide drawing is inferred or uncertain, most often the ends. Some compounds share one wording; it may come from a single statement. Residues, ends and D or L forms follow the SMILES beside them.

Sequences of proteins named here, by UniProt entry; tags and fusion partners are left off.
UniProt P63085, whole entry: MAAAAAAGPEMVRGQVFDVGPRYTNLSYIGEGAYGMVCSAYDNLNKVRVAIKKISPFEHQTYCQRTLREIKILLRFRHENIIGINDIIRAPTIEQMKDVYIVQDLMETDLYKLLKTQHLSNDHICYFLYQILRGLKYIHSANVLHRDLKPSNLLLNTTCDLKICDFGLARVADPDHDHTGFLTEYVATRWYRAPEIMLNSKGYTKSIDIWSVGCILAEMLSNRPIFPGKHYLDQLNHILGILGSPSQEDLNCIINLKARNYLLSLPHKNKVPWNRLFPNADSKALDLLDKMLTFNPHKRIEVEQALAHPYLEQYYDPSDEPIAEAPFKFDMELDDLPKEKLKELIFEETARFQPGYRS
UniProt P63085, whole entry K52R: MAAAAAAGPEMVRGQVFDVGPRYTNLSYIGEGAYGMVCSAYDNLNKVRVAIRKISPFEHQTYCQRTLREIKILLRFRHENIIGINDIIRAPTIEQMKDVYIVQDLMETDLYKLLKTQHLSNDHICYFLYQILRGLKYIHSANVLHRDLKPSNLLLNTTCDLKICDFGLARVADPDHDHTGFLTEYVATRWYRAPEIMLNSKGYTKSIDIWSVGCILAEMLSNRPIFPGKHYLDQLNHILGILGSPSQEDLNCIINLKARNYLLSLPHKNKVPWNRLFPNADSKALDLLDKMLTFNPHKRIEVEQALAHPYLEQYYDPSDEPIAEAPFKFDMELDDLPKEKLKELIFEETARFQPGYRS

What was measured:
[1] = target: T1, MKP-1 dephosphorylation of ERK2 (Mus musculus, UniProt P63085); assay: Phosphatase assay: MKP-1 dephosphorylation of ERK2 with docking domain peptides; assay type: biochemical, human (MKP-1); settings: western blot with anti-phospho-ERK2
T1 construct: purchased Upstate Biotechnology (MKP-1); no vendor is printed for the active ERK2 in this assay
Description: The following experiment was performed to assess whether MAPK-docking domain peptides would inhibit dephosphorylation of ERK2 by MKP-1. Purified, full-length, activated ERK2 (0.5 pmol) was incubated with 0.5 units of purified active MKP-1 for 20 min, in the absence or presence of the specified concentrations of the indicated peptides. ERK2 dephosphoryation was quantified by SDS-PAGE followed by western blotting and immonostaining with anti-phospho-ERK2 (Thr202/Tyr204). The lanes corresponding to ERK2 with no MKP-1 or no added peptide contain 50% of the relative amounts loaded in all other lanes (see FIG. 4A).
Phosphatase reactions (20 μl) for MKP-1 dephosphorylation of ERK2 contained 50 mM Tris-HCl (pH 7.5), 50 mM NaCl, 0.5 pmol active mouse ERK2, 0.5 units active human MKP-1 (Upstate Biotechnology) and the indicated concentration of peptide. Reactions were for 30 min. at 30° C. Reactions were analyzed by SDS-PAGE followed by western transfer and immunostaining with anti-phospho-ERK2 (Thr202/Tyro204) antibody (New England Biolabs).

[2] = target: T2, MEK2 binding to GST-ERK2 (Mus musculus, UniProt P63085); assay: GST co-sedimentation (pull-down) assay of 35S-MEK2 binding to GST-ERK2; settings: 25 μM or 100 μM peptide
T2 construct: made in house; host or cells: MEK2 by in vitro translation
Description: The purpose of the following experiment is to assess whether MAPK docking domain peptides would inhibit MEK2-binding to GST-ERK2. Radiolabeled (^35S) MEK2 and MEK2Δ4-16 proteins (˜1 pmol) were prepared by in vitro translation, partially purified by ammonium sulfate precipitation, and then incubated with 10 μg of purified GST or GST-ERK2 pre-bound to glutathione-Sepharose beads, in the absence or presence of the specified concentrations of docking domain peptides (Ste7, MEK1, MEK2, Elk-1) or mutant forms of docking domain peptides (scram7, MEK2EEAA, ElkEEG). Bead-bound protein complexes were isolated by sedimentation and resolved on 12% SDS-polyacrylamide gels. An autoradiogram of a representative experiment is illustrated (see FIG. 5A). Gels were analyzed by staining with Coomassie Blue for visualization of the bound GST fusion protein in order to verify equal amounts in each reaction and by autoradiography for visualization of the bound radiolabeled MEK2 or MEK2Δ4-16 to GST or GST-ERK2 in the absence of peptide (hatched bars), or in the presence of 25 μM (light gray bars) or 100 μM peptide (dark gray bars) (see FIG. 5B). Data are the average of three to five experiments; standard error bars are shown.
The constructs and methods used in the GST co-sedimentation (“pull-down”) experiments shown in FIG. 5 have been described elsewhere (Bardwell et al., 2001). The indicated concentrations of peptides were added to the GST-glutahione sepharose or GST-ERK2-gluththione-sepharose beads prior to the addition of the radiolabeled protein.

[3] = target: T3, MEK2 phosphorylation of ERK2 (Mus musculus, UniProt P63085, K52R); assay: Kinase assay: MEK2 phosphorylation of ERK2 with docking domain peptides; assay type: biochemical, human (MEK2); settings: for inhibition of ERK2 phosphorylation by MEK2 (in words): peptide titrated into MEK2 kinase assay; for IC50: 1 μM inactive ERK2, 0.1 units active MEK2, 20 min, read-out: IC50 for inhibition of MEK2 phosphorylation of ERK2
T3 construct: purchased New England Biolabs (ERK2 K52R); Upstate Biotechnology (MEK2)
Description: The following experiment was done to investigate whether docking domain peptides could inhibit MEK2 phosphorylation of ERK2. […] An autoradiogram of a representative experiment is shown (see FIG. 2A). The results were plotted as percent phoshphorylation relative to that observed in the absence of any added peptide (see FIG. 2B). ERK2 phosphorylation was analyzed by SDS-PAGE and quantified. Data are the average of two to four experiments, with triplicate data points in each experiment.
ERK2 and peptide were pre-incubated in buffer for 10 min at 37° C., then returned to ice prior to the addition of ATP and MEK2. Reactions were for 20 min at 30° C. ERK2 phosphorylation was quantified by SDS-PAGE followed by analysis of relative incorporation using a Phosphorlmager™ (Molecular Dynamics, Inc.).

[4] = target: T4, ERK2 phosphorylation of Elk-1 (Mus musculus, UniProt P63085); assay: Kinase assay: ERK2 phosphorylation of GST-Elk-1 with docking domain peptides; assay type: biochemical, human (Elk-1); settings: GST-Elk-1 as substrate; read-out: IC50 for inhibition of ERK2 phosphorylation of Elk-1
T4 construct: purchased New England Biolabs

With `CC[C@H](C)[C@H](NC(=O)[C@@H]1CCCN1C(=O)[C@@H](NC(=O)[C@@H]1CCCN1C(=O)[C@H](CCCCN)NC(=O)[C@H](CCCCN)NC(=O)[C@H](CCCCN)NC(=O)[C@@H]1CCCN1C(=O)[C@@H](N)CCSC)[C@@H](C)O)C(=O)N[C@@H](CCC(N)=O)C(=O)N[C@@H](CC(C)C)C(=O)N[C@@H](CC(N)=O)C(=O)N1CCC[C@H]1C(=O)N[C@@H](C)C(=O)N1CCC[C@H]1C(=O)N[C@@H](CC(=O)O)C(=O)NCC(=O)O` [MEK1, MPKKKPTPIQLNPAPDG] the “inhibition of MKP-1 mediated dephosphorylation of phospho-ERK2 (in words)” value (shortened to “inhibition … of phospho-ERK2 (in words)”) [1] was “dose-dependent inhibition”, the “inhibition of MEK2 protein co-sedimentation with GST-ERK2 (in words)” value (from here on “inhibition … with GST-ERK2 (in words)”) [2] was “inhibited” and the “inhibition of ERK2 phosphorylation by MEK2 (in words)” value (“inhibition of ERK2 phosphorylation” below) [3] was “dose-dependent inhibition”.
In the case of `CC[C@H](C)[C@H](NC(=O)[C@@H](NC(=O)[C@@H]1CCCN1C(=O)[C@H](CC(N)=O)NC(=O)[C@@H](NC(=O)[C@@H](NC(=O)[C@H](CC(C)C)NC(=O)[C@H](C)NC(=O)[C@@H]1CCCN1C(=O)[C@H](CC(C)C)NC(=O)[C@@H](NC(=O)[C@@H]1CCCN1C(=O)[C@H](CCCCN)NC(=O)[C@H](CCCNC(=N)N)NC(=O)[C@H](CCCNC(=N)N)NC(=O)[C@H](C)NC(=O)[C@H](CC(C)C)NC(=O)[C@@H](N)CCSC)C(C)C)[C@@H](C)O)[C@@H](C)CC)[C@@H](C)O)C(=O)N[C@@H](C)C(=O)N[C@@H](CCC(=O)O)C(=O)O` [MEK2], the “inhibition … of phospho-ERK2 (in words)” value [1] is reported as “dose-dependent inhibition”, the “inhibition … with GST-ERK2 (in words)” value [2] is reported as “inhibited” and the IC50 [3] is reported as ~20 µM. The “inhibition of ERK2 phosphorylation” value [3] was “dose-dependent inhibition”.
For `CC[C@H](C)[C@H](NC(=O)[C@H](CCC(N)=O)NC(=O)[C@H](CCC(=O)O)NC(=O)[C@H](CC(C)C)NC(=O)[C@H](CO)NC(=O)[C@@H](NC(=O)[C@H](CO)NC(=O)CNC(=O)[C@H](CCCCN)NC(=O)[C@H](C)NC(=O)[C@H](CCCNC(=N)N)NC(=O)[C@H](CCCNC(=N)N)NC(=O)[C@H](CCCNC(=N)N)NC(=O)[C@@H](NC(=O)[C@@H](NC(=O)[C@@H](N)[C@@H](C)O)[C@@H](C)CC)C(C)C)C(C)C)C(=O)N[C@@H](CC(C)C)C(=O)N1CCC[C@H]1C(=O)N[C@@H](C)C(=O)O` [MKP-2, TIVRRRAKGSVSLEQILPA] (H-TIVRRRAKGSVSLEQILPA-OH; N-terminus and C-terminus assumed), the “inhibition … of phospho-ERK2 (in words)” value [1] was “dose-dependent inhibition”, the IC50 [4] was ~20 µM and the IC50 [3] was ~50 µM.
For `CC(C)C[C@H](NC(=O)CNC(=O)[C@H](CCCCN)NC(=O)[C@H](CC(C)C)NC(=O)[C@H](CC(N)=O)NC(=O)[C@H](CCCNC(=N)N)NC(=O)[C@H](CCCNC(=N)N)NC(=O)[C@H](CCC(N)=O)NC(=O)[C@H](CC(C)C)NC(=O)[C@@H](NC(=O)[C@H](CCCCN)NC(=O)[C@H](CCCNC(=N)N)NC(=O)[C@H](CCC(N)=O)NC(=O)[C@@H](N)Cc1ccccc1)[C@@H](C)O)C(=O)N[C@@H](CC(N)=O)C(=O)N[C@@H](CC(C)C)C(=O)N[C@@H](CC(N)=O)C(=O)N[C@@H](CC(C)C)C(=O)N[C@@H](Cc1c[nH]cn1)C(=O)N1CCC[C@H]1C(=O)N[C@@H](CC(=O)O)C(=O)O` [Ste7], the “inhibition … of phospho-ERK2 (in words)” value [1] was “dose-dependent inhibition”, the “inhibition … with GST-ERK2 (in words)” value [2] was “inhibited” and the IC50 [3] was ~20 µM. The “inhibition of ERK2 phosphorylation” value [3] was “dose-dependent inhibition”.
